Results from PubChem BioAssay AID200 (DTP/NCI, 2004).
The list does not hold the whole screen: it is rich in T/C values a quarter to a half above the control, in often repeated tests (any T/C) and in doses without a T/C. Further doses and runs are listed elsewhere. T/C gives the treated animals as a percentage of the vehicle group. Some entries give survivors of the animals treated and no T/C: the source holds a T/C of zero for them, seemingly a mark for toxic or unscored doses. Some survivor counts are full or nearly so, which does not show that the dose was tolerated: the source hardly ever lists a survival T/C far under the control, and the zero likely stands for such cases as well. Survivors were counted at the toxicity check, usually on the fifth day, unless a day is given; later deaths do not show. Schedules are NCI's codes, taken here to give the interval after Q, in days (D) or hours (H), and the number of doses after X. Some doses were run more than once; the results are listed from low to high. For survival time, this PubChem deposit counts one and a half times the control or more as active, and values a quarter to a half above the control carry no call in these data; other NCI protocols may use other cut-offs. Brackets with × say how often a value occurs here. Some T/C values are followed by the survivors on the day toxicity was checked, most often the fifth; where none is given, no animal had died by that day. *1 amine or outer side, *2 acyl side, *3 side chain or, on linkers, in order; H or OH if unused. Where a SMILES comes first, the peptide text is derived from it. Bridges are numbered along the chain shown (N, C = ends). Roman numbers before positions name the chains, in order. [ ]: non-standard residue; d: D form. Actinocin(1to9) = Cc1c2oc3c(C)ccc(C(=O)[*:2])c3nc-2c(C(=O)[*:1])c(N)c1=O; X1 = COC(=O)CCN(CC(=O)[*:2])[*:1]; NMeA = CN[CH](C)C(=O)O

System: B6C3F1 mice, B16 melanoma ip, median survival T/C
Experiment: NCI In Vivo Anticancer Drug Screen. Data for tumor model B16 Melanoma (intraperitoneal) in B6C3F1 mice
Details: T/C endpoint: median survival time, higher T/C = longer survival
Summary of the method: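 Values are T/C ratios: the measurement in treated animals divided by that in vehicle-treated controls, using survival or tumor size in mice carrying transplantable tumors.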

[1] = dose: 100.0 mg/kg/injection, schedule: Q01DX009 (ip), vehicle: saline with Tween-80
[2] = dose: 400.0 mg/kg/injection, schedule: Q01DX009 (ip), vehicle: saline
[3] = dose: 200.0 mg/kg/injection, schedule: Q01DX009 (ip), vehicle: saline with Tween-80
[4] = dose: 400.0 mg/kg/injection, schedule: Q01DX009 (ip), vehicle: saline with Tween-80
[5] = dose: 25.0 mg/kg/injection, schedule: Q01DX009 (ip), vehicle: water
[6] = dose: 50.0 mg/kg/injection, schedule: Q01DX009 (ip), vehicle: Klucel (hydroxypropylcellulose) (HPC)

CC(=O)Nc1cscc1NC(C)=O
survivor count [1]: 10 of 10

c1csc(C[N+]23CN4CN(CN(C4)C2)C3)c1
survivor count [2]: 0 of 10

OC1(CSc2ccccc2)CCCCC1
survivor count [3]: 7 of 10
survivor count [4]: 4 of 10

CC1[C@@H]2CC=C3[C@H]4CCC5Cc6nc7c(nc6C[C@@]5(C)C4CC(=O)[C@]32CO[C@]12OC(C)(C)CC2O)CC1CC[C@@H]2C3=C[C@H]4O[C@@]5(O[C@@](C)(CO)C[C@@H]5O)C(C)[C@@]4(O)[C@]3(C)[C@@H](O)CC2[C@]1(C)C7 (stereo partly drawn)
survivor count (dose: 100.0 micrograms/kg/injection, schedule: Q01DX009 (ip), vehicle: saline + alcohol): 10 of 10

COc1cc2c3c(cccc3c1)C(=O)N(CCN(C)C)C2=O
T/C (dose: 80.0 mg/kg/injection, schedule: Q01DX009 (ip), vehicle: saline with Tween-80): 126 and 132 % of control
survivor count (dose: 160.0 mg/kg/injection, schedule: Q01DX009 (ip), vehicle: saline with Tween-80): 2 of 10, 9 of 10, 10 of 10

O=C1NC(O)c2ccccc2O1 (stereo not drawn)
survivor count [4]: 9 of 10

COc1cccc2c1C(=O)c1c(O)c3c(c(O)c1C2=O)C[C@@](O)(/C(C)=N\O)C[C@@H]3OC1CC(N)C(O)C(C)O1 (stereo partly drawn)
T/C (dose: 3.0 mg/kg/injection, schedule: Q01DX009 (ip), vehicle: saline): 148 % of control
T/C [5]: 134 % of control
survivor count (dose: 50.0 mg/kg/injection, schedule: Q01DX009 (ip), vehicle: water): 8 of 10

CC(C)(C)OC(=O)NCC(=O)ON1C(=O)CCC1=O
survivor count [3]: 10 of 10

C[n+]1c(/C=N/NC(N)=S)ccc2ccccc21
survivor count [3]: 10 of 10

O=C(N/N=C\c1cc(Br)cc(Br)c1O)N/N=C/c1cc(Br)cc(Br)c1O
T/C (dose: 12.5 mg/kg/injection, schedule: Q01DX009 (ip), vehicle: saline with Tween-80, evaluated on day 45): 104 % of control
T/C (dose: 12.5 mg/kg/injection, schedule: Q01DX009 (ip), vehicle: saline with Tween-80, evaluated on day 60): 104, 107, 110, 111 % of control
T/C (dose: 25.0 mg/kg/injection, schedule: Q01DX009 (ip), vehicle: saline with Tween-80, evaluated on day 45): 101 % of control
T/C (dose: 25.0 mg/kg/injection, schedule: Q01DX009 (ip), vehicle: saline with Tween-80, evaluated on day 60): 101, 106, 107, 117 % of control
T/C (dose: 50.0 mg/kg/injection, schedule: Q01DX009 (ip), vehicle: saline with Tween-80, evaluated on day 45): 114 % of control
T/C (dose: 50.0 mg/kg/injection, schedule: Q01DX009 (ip), vehicle: saline with Tween-80, evaluated on day 60): 109, 118, 119, 124 % of control
T/C (dose: 100.0 mg/kg/injection, schedule: Q01DX009 (ip), vehicle: saline with Tween-80, evaluated on day 45): 114 % of control
T/C (dose: 100.0 mg/kg/injection, schedule: Q01DX009 (ip), vehicle: saline with Tween-80, evaluated on day 60): 121 (2×), 128, 144 % of control
T/C (dose: 200.0 mg/kg/injection, schedule: Q01DX009 (ip), vehicle: saline with Tween-80, evaluated on day 45): 129 % of control
T/C (dose: 200.0 mg/kg/injection, schedule: Q01DX009 (ip), vehicle: saline with Tween-80, evaluated on day 60): 141, 152, 154 % of control (2×)
T/C (dose: 400.0 mg/kg/injection, schedule: Q01DX009 (ip), vehicle: saline with Tween-80, evaluated on day 45): 147 % of control
T/C (dose: 400.0 mg/kg/injection, schedule: Q01DX009 (ip), vehicle: saline with Tween-80, evaluated on day 60): 101 and 151 % of control
survivor count [4]: 9 of 10 and 10 of 10

COc1cc(OC)c(NC(=O)ON2C(=O)c3ccccc3C2=O)cc1Cl
survivor count [1]: 10 of 10

CCCC(=O)O
survivor count [2]: 5 of 10

CC(C)[C@](O)(C(=O)OCC1=CCN2CC[C@@H](O)[C@@H]12)[C@H](C)O
T/C (dose: 100.0 mg/kg/injection, schedule: Q01DX009 (ip), vehicle: water): 127 % of control
T/C (dose: 200.0 mg/kg/injection, schedule: Q01DX009 (ip), vehicle: water): 133 % of control
T/C (dose: 400.0 mg/kg/injection, schedule: Q01DX009 (ip), vehicle: water): 128 [9 of 10 alive] and 144 % of control
survivor count (dose: 800.0 mg/kg/injection, schedule: Q01DX009 (ip), vehicle: water): 0 of 10 and 2 of 10

CC1(C)CC2(C)OC2C2(C1)N=NC(=Nc1ccccc1)O2 (stereo not drawn)
survivor count [3]: 3 of 10
survivor count [4]: 0 of 10

C[Si](C)(C)O/C=C1/CCOC1=O
survivor count (dose: 400.0 mg/kg/injection, schedule: Q01DX009 (ip), vehicle: Klucel (hydroxypropylcellulose) (HPC)): 10 of 10

O=Cc1ccc([N+](=O)[O-])s1
survivor count [1]: 0 of 10

CCOC(=O)C(N)CSC(=O)NC (stereo not drawn)
survivor count (dose: 200.0 mg/kg/injection, schedule: Q01DX009 (ip), vehicle: saline): 7 of 10
survivor count [2]: 3 of 10

CC(=Nc1ccccc1)C1=C(O)C(Cc2ccccc2)NC1=O (stereo not drawn)
T/C [1]: 132 % of control
T/C [3]: 130 % of control
survivor count [4]: 1 of 10

COc1oc(C2C/C(=C/C(C)=C/C(C)=C/C(C)=C/c3ccc([N+](=O)[O-])cc3)CO2)c(C)c(=O)c1C (stereo not drawn)
survivor count (dose: 4.0 mg/kg/injection, schedule: Q01DX009 (ip), vehicle: saline with Tween-80): 9 of 10

NC(=O)CC(NC(=O)OCC1c2ccccc2-c2ccccc21)C(=O)O (stereo not drawn)
survivor count [6]: 6 of 10

Sc1ccccc1-n1c(-c2ccccc2)ccc1-c1ccccc1
survivor count [3]: 10 of 10
survivor count [4]: 10 of 10

COC(=O)[C@@]12OC[C@]34[C@H]([C@@H](O)[C@@H]1O)[C@@]1(C)CC(=O)C(OC(=O)CC(=O)OC5=C(C)[C@@H]6C[C@H]7OC(=O)[C@H](OC(=O)/C=C(\C)C(C)C)[C@H]8[C@]9(C(=O)OC)OC[C@]78[C@H]([C@@H](O)[C@@H]9O)[C@@]6(C)CC5=O)=C(C)[C@@H]1C[C@H]3OC(=O)[C@H](OC(=O)/C=C(\C)C(C)C)[C@@H]24
T/C (dose: 0.37 mg/kg/injection, schedule: Q01DX009 (ip), vehicle: saline + Tween-80 + alcohol): 139 % of control
T/C (dose: 0.75 mg/kg/injection, schedule: Q01DX009 (ip), vehicle: saline + Tween-80 + alcohol): 142 % of control
survivor count (dose: 3.0 mg/kg/injection, schedule: Q01DX009 (ip), vehicle: saline + Tween-80 + alcohol): 1 of 10
survivor count (dose: 6.0 mg/kg/injection, schedule: Q01DX009 (ip), vehicle: saline + Tween-80 + alcohol): 0 of 10

CNC(=O)c1cccc2c(Nc3ccc(NS(C)(=O)=O)cc3OC)c3cccc(C)c3nc12
T/C (dose: 1.5 mg/kg/injection, schedule: Q01DX009 (ip), vehicle: water): 133 % of control [9 of 10 alive]
T/C (dose: 1.56 mg/kg/injection, schedule: Q01DX009 (ip), vehicle: water): 125 % of control
T/C (dose: 3.12 mg/kg/injection, schedule: Q01DX009 (ip), vehicle: water): 139 % of control
survivor count (dose: 6.0 mg/kg/injection, schedule: Q01DX009 (ip), vehicle: water): 10 of 10
survivor count (dose: 12.0 mg/kg/injection, schedule: Q01DX009 (ip), vehicle: water): 9 of 10
survivor count [5]: 6 of 10

CCCNc1ncnc2c1cnn2C
survivor count (dose: 50.0 mg/kg/injection, schedule: Q01DX009 (ip), vehicle: saline): 10 of 10

COC(=O)CCN1CC(=O)N(C)C(C)C(=O)OC(C)C(NC(=O)c2c3nc4c(C(=O)NC5C(=O)NC(C(C)C)C(=O)N6CCCC6C(=O)N(CCC(=O)OC)CC(=O)N(C)C(C)C(=O)OC5C)ccc(C)c4oc-3c(C)c(=O)c2N)C(=O)NC(C(C)C)C(=O)N2CCCC2C1=O (stereo not drawn) (I: TVP[X1][NMeA] / II: TVP[X1][NMeA]; ester I:1-I:C, II:1-II:C; linker I:N-II:N via Actinocin(1to9); configuration not given here)
T/C (dose: 16.0 mg/kg/injection, schedule: Q04DX003 (ip), vehicle: saline + alcohol): 129 % of control
T/C (dose: 32.0 mg/kg/injection, schedule: Q04DX003 (ip), vehicle: saline + alcohol): 129 % of control

Nc1n[nH]c2ccccc12
survivor count (dose: 400.0 mg/kg/injection, schedule: Q01DX009 (ip), vehicle: acid diluted with saline): 9 of 10

CC(=O)/C=C\c1ccc(Cl)cc1
survivor count (dose: 100.0 mg/kg/injection, schedule: Q01DX009 (ip), vehicle: saline): 4 of 10

CCN(CC)c1ccc2cc(-c3nc4ccccc4n3C)c(=O)oc2c1
T/C [6]: 127 and 134 % of control
survivor count (dose: 100.0 mg/kg/injection, schedule: Q01DX009 (ip), vehicle: Klucel (hydroxypropylcellulose) (HPC)): 2 of 10 and 9 of 10
survivor count (dose: 200.0 mg/kg/injection, schedule: Q01DX009 (ip), vehicle: Klucel (hydroxypropylcellulose) (HPC)): 0 of 10 and 2 of 10
